Assay results as given in the supplement of paper PMC7646827.
Structures can show the parent of a compound that is named as a salt. Many values rest on one well or one pass, so single values are uncertain.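 All cells are established human bladder cancer lines, one derived from a patient-derived xenograft. A luminescent ATP assay measured viability as percent inhibition relative to vehicle across seven dilutions. The paper rates scores above 59 very active, 30–59 active, 21–29 semi-active, 9–20 low active, below 9 inactive.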

Assays:
Test in all cases: drug sensitivity score DSS3 (score 0-100); higher = more sensitive; extreme values may be limits of the assay
Details in all cases: culture: 3D, ultra-low attachment; treatment time: 5 days
[1] = tested on: SCaBER
[2] = tested on: UM-UC-5
[3] = tested on: BC8149
[4] = tested on: SW780
[5] = tested on: UM-UC-3
[6] = tested on: UM-UC-17
[7] = tested on: UM-UC-12
[8] = tested on: UM-UC-14
[9] = tested on: J82
[10] = tested on: TCCSUP
[11] = tested on: UM-UC-1
[12] = tested on: 5637
[13] = tested on: UM-UC-18
[14] = tested on: UM-UC-6
[15] = tested on: UM-UC-15
[16] = tested on: T-24
[17] = tested on: UM-UC-9

Structure (SMILES) | drug sensitivity score DSS3 [1] | drug sensitivity score DSS3 [2] | drug sensitivity score DSS3 [3] | drug sensitivity score DSS3 [4] | drug sensitivity score DSS3 [5] | drug sensitivity score DSS3 [6] | drug sensitivity score DSS3 [7] | drug sensitivity score DSS3 [8] | drug sensitivity score DSS3 [9] | drug sensitivity score DSS3 [10] | drug sensitivity score DSS3 [11] | drug sensitivity score DSS3 [12] | drug sensitivity score DSS3 [13] | drug sensitivity score DSS3 [14] | drug sensitivity score DSS3 [15] | drug sensitivity score DSS3 [16] | drug sensitivity score DSS3 [17]
CC(C=CC(=O)NO)=CC(C)C(=O)c1ccc(N(C)C)cc1 (stereo not drawn) [Trichostatin A (TSA)] (max dose 10000 nM) | 3.21 | 2.03 | 3.85 | 1.34 | 8.86 | 20 | 9.98 | 2.61 | 11.9 | 13.7 | 2.27 | 8.19 | 2.68 | 3.84 | 13 | 1.76 | 2.75
CC(O)(CS(=O)(=O)c1ccc(F)cc1)C(=O)Nc1ccc(C#N)c(C(F)(F)F)c1 (stereo not drawn) [Bicalutamide] (max dose 10000 nM) | 0.467 | 0 | 0 | 0 | 0 | 0 | 0 | 0 | 0 | 0 | 0 | 0 | 0 | 0 | 0 | 0 | 0
CCOc1nc2cccc(C(=O)OCc3oc(=O)oc3C)c2n1Cc1ccc(-c2ccccc2-c2noc(=O)[nH]2)cc1 [Azilsartan Medoxomil] (max dose 10000 nM) | 0 | 0 | 0 | 0 | 0 | 0 | 0 | 0 | 0 | 0 | 0 | 0 | 0 | 0 | 0 | 0 | 0
C[C@@H](Nc1cc(F)cc(F)c1)c1cc(C(=O)N(C)C)cc2c(=O)cc(N3CCOCC3)oc12 [AZD8186] (max dose 10000 nM) | 11.8 | 3.91 | 11.8 | 10.6 | 17.6 | 9.14 | 14.2 | 9.49 | 8.35 | 7.28 | 12.9 | 14.5 | 7.1 | 0.501 | 4.67 | 0 | 16.8
CNC(=O)c1c(C)oc2cc(Oc3ncnc4cc(OC)c(OC)cc34)ccc12 [Fruquintinib] (max dose 10000 nM) | 0 | 0 | 1.12 | 0 | 0.767 | 0 | 1.05 | 2.25 | 0 | 1.35 | 1.22 | 1.27 | 2.82 | 0.225 | 0 | 0 | 0.00804
C[C@H](Nc1ncnc2[nH]cnc12)c1nc2ccc(F)cc2c(=O)n1-c1ccccc1 [acalisib (GS-9820)] (max dose 10000 nM) | 0.945 | 0 | 2.4 | 0 | 3.61 | 0 | 0.86 | 0.278 | 0.374 | 0.378 | 12.3 | 0 | 0.247 | 2.19 | 0 | 0.389 | 0
O=C(Nc1cc(C(F)(F)F)ccc1N1CCCCC1)c1ccncc1 [SRPIN340] (max dose 10000 nM) | 0 | 0 | 0 | 0 | 0.0289 | 0 | 0 | 0 | 0 | 0 | 0 | 0 | 0 | 0 | 0 | 0 | 0
O=C(NCCS(=O)(=O)c1ccc(C(F)(F)F)cn1)c1ccc(Cl)cc1 [GSK3787] (max dose 10000 nM) | 0 | 0 | 0 | 0 | 0 | 0 | 0 | 0 | 0 | 0 | 0 | 0 | 0 | 0 | 0 | 0 | 0
C=CC(=O)N[C@H]1CCOC[C@H]1Nc1ncc2cc(-c3c(Cl)c(OC)cc(OC)c3Cl)ccc2n1 [BLU-554 (BLU554)] (max dose 10000 nM) | 0 | 0 | 0 | 0 | 0 | 0 | 0 | 0 | 0 | 0 | 0 | 0 | 0 | 0 | 0 | 0 | 0
CN[C@@H](C)C(=O)N[C@H](C(=O)N1CCC[C@H]1C(=O)Nc1snnc1-c1ccccc1)C1CCCCC1 [GDC-0152] (max dose 10000 nM) | 3.38 | 0 | 2.62 | 0 | 0 | 0.1 | 0 | 0 | 0 | 0 | 0 | 0 | 0 | 0 | 33.2 | 0 | 0
CNCc1ccc(-c2[nH]c3cc(F)cc4c3c2CCNC4=O)cc1 (max dose 10000 nM) | 0.128 | 0 | 0 | 0 | 5e-07 | 0 | 0 | 0 | 0.79 | 0.494 | 0 | 0 | 0 | 0 | 0 | 1.18 | 0
O=c1[nH]cnc2ccccc12 [4-Hydroxyquinazoline] (max dose 10000 nM) | 0 | 0 | 0 | 0 | 0 | 0 | 0 | 0 | 0 | 0 | 0 | 0 | 0 | 0 | 0.279 | 0 | 0
Cc1ccc(NC(=O)c2ccnc(C(F)(F)F)c2)cc1-c1cc(OCCO)nc(N2CCOCC2)c1 [LXH254] (max dose 10000 nM) | 6.26 | 10.5 | 0 | 0 | 4.96 | 0.0714 | 0 | 1.17 | 0 | 1.16 | 1.45 | 2.39 | 0.105 | 0.105 | 3.28 | 0 | 0.878
COc1ccccc1OCC(O)CN1CCN(CC(=O)Nc2c(C)cccc2C)CC1 (stereo not drawn) [Ranolazine] (max dose 10000 nM) | 0 | 0 | 0 | 0 | 0.85 | 0 | 0 | 0 | 0 | 0 | 0 | 0 | 0 | 0 | 0 | 0 | 0
CC(C)(C)c1ccc(S(=O)(=O)/C=C/C#N)cc1 [Bay 11-7085] (max dose 10000 nM) | 0 | 0 | 1.61 | 0 | 1 | 0 | 0.949 | 0.458 | 0 | 1.44 | 0 | 2.68 | 10.6 | 0 | 0 | 0.0194 | 0
CCCCCCCc1ccc(CCc2cccc(O)c2C(=O)O)cc1 [MG149] (max dose 10000 nM) | 0.75 | 0.33 | 5.41 | 0.0832 | 1 | 2.29 | 1.13 | 2.88 | 0 | 7.93 | 2.47 | 3.65 | 0 | 0.772 | 0 | 0 | 0.884
CC(C)(C)c1cc(NC(=O)Nc2ccc(-c3cn4c(n3)sc3cc(OCCN5CCOCC5)ccc34)cc2)no1 [Quizartinib (AC220)] (max dose 10000 nM) | 0 | 0 | 1.42 | 0.274 | 0 | 1.59 | 0 | 0.615 | 0 | 1.83 | 0.716 | 0 | 0 | 0.435 | 1.59 | 0 | 0
CC(=O)[C@@]1(O)CC[C@H]2[C@@H]3CCC4=CC(=O)CCC4=C3[C@@H](c3ccc(N(C)C)cc3)C[C@@]21C [ulipristal] (max dose 10000 nM) | 5 | 0 | 8.24 | 0.21 | 2.05 | 0 | 0 | 0 | 0 | 3.6 | 0 | 1.22 | 0.815 | 0 | 0 | 0 | 0
CN(C)CCOc1ccc(/C(=C(/CCCl)c2ccccc2)c2ccccc2)cc1 [Toremifene Citrate] (max dose 10000 nM) | 0 | 0 | 0.119 | 0 | 0 | 0 | 0 | 0 | 0 | 0 | 0 | 0 | 0 | 0 | 0 | 0 | 0
O=C1NC(=O)C(c2ccccc2[N+](=O)[O-])=C1Nc1ccc(O)c(Cl)c1 (max dose 10000 nM) | 0 | 0 | 0 | 0 | 0 | 0 | 0 | 0 | 0 | 0 | 0 | 0 | 0 | 0 | 1.83 | 0 | 0
Cc1nnc(NS(=O)(=O)c2ccc(N)cc2)s1 [Sulfamethizole] (max dose 10000 nM) | 0 | 0 | 0 | 0 | 0 | 0 | 0 | 0 | 0 | 0 | 0 | 0 | 0 | 0 | 0 | 0 | 0
OC[C@H]1O[C@@H](c2ccc(Cl)c(Cc3ccc(O[C@H]4CCOC4)cc3)c2)[C@H](O)[C@@H](O)[C@@H]1O (max dose 10000 nM) | 0 | 0 | 0 | 0 | 0 | 0 | 0 | 0 | 0 | 0 | 18.1 | 0 | 0 | 0 | 0.904 | 0 | 0
CN(C[C@@H]1COCCO1)S(=O)(=O)Nc1ccc2ccc3ncc(-c4cnn(C)c4)cc3c(=O)c2c1 [MK-2461] (max dose 10000 nM) | 4.05 | 0.132 | 5.73 | 6.97 | 1.58 | 8.4 | 7.76 | 6.52 | 2.96 | 4 | 3.15 | 7.54 | 2.16 | 0 | 2.1 | 0 | 2.7
Cc1ccc([C@@H]2O[C@H](CO)[C@@H](O)[C@H](O)[C@H]2O)cc1Cc1ccc(-c2ccc(F)cc2)s1 [Canagliflozin] (max dose 10000 nM) | 0 | 0 | 0.183 | 0 | 0 | 0 | 0 | 0 | 0 | 0 | 0 | 0 | 0 | 0 | 0 | 0 | 0

Complete entries from above. Values in the order: drug sensitivity score DSS3 [1] | drug sensitivity score DSS3 [2] | drug sensitivity score DSS3 [3] | drug sensitivity score DSS3 [4] | drug sensitivity score DSS3 [5] | drug sensitivity score DSS3 [6] | drug sensitivity score DSS3 [7] | drug sensitivity score DSS3 [8] | drug sensitivity score DSS3 [9] | drug sensitivity score DSS3 [10] | drug sensitivity score DSS3 [11] | drug sensitivity score DSS3 [12] | drug sensitivity score DSS3 [13] | drug sensitivity score DSS3 [14] | drug sensitivity score DSS3 [15] | drug sensitivity score DSS3 [16] | drug sensitivity score DSS3 [17]
O=c1[nH]cnc2ccccc12 [4-Hydroxyquinazoline] (max dose 10000 nM) in the list: 0 | 0 | 0 | 0 | 0 | 0 | 0 | 0 | 0 | 0 | 0 | 0 | 0 | 0 | 0.279 | 0 | 0
CC(C)(C)c1cc(NC(=O)Nc2ccc(-c3cn4c(n3)sc3cc(OCCN5CCOCC5)ccc34)cc2)no1 [Quizartinib (AC220)] (max dose 10000 nM) in the list: 0 | 0 | 1.42 | 0.274 | 0 | 1.59 | 0 | 0.615 | 0 | 1.83 | 0.716 | 0 | 0 | 0.435 | 1.59 | 0 | 0
